{"source": "patent US6288036A", "about": "(priority 1993, dated 2001)", "assay": "Boc solid-phase peptide synthesis; Boc-Arg(Tos)-PAM resin", "settings": "whole synthesis, scale 0.25 g resin", "note": "Where no end group is shown, it is not given here. [ ]: non-standard residue; d: D form. Oic = O=C(O)[C@@H]1C[C@@H]2CCCC[C@@H]2N1; Hyp = O=C(O)[C@@H]1C[C@@H](O)CN1; 2Thi = N[C@@H](Cc1cccs1)C(=O)O", "data": [{"substance": "[dR]RP[Hyp]G[2Thi]S[dF][Oic]R", "values": [{"measurement": "crude mass", "value": 176, "unit": "mg"}, {"measurement": "isolated mass", "value": 53, "unit": "mg"}]}]}
